In all, about 400,000 compounds went through this assay and about 13,000 (3.2%) were called active. The shares of active, inactive and inconclusive entries below differ from those in the screen. Calls follow the shape of the dose curve; as a rule, active = well fitted cell-killing curve with a large enough effect; inconclusive = small, poorly fitted or top-dose-only effect, or effect the other way; inactive = flat fitted curve, though single readings scatter. Where the call is inconclusive, the potency comes from a doubtful curve fit.
Assay: qHTS assay for MDR1-selective chemotherapeutics: Primary screen using the drug-selected MDR subline cells KB-V1; also: nearly all actives have a fitted effect of over 60% in size
Settings: KB-V1 MDR cells viability, CellTiter-Glo, 72 h; activity change, negative = cytotoxicity: at 46.1 µM (top of the series)
Outline: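 In this primary screen, KB-V1 cells overexpressing P-gp are incubated with library compounds (lowest to highest concentration) for 72 h at 37 degrees C before a luminescent ATP viability read.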
% is scaled to controls: 0 for no effect and ±100 for the full control effect; potency is read from the fitted curve at half-maximal effect.

Structure (SMILES)	activity change, negative = cytotoxicity	Potency
CCN(CC)CCN(C(=O)c1ccc2c(c1)CCCC2)c1nc2ccc(C)cc2s1	inactive: -15.7%	
CCN(CC)C(=O)c1sc(NC(=O)C(Sc2ccccc2)c2ccccc2)c(C(=O)OC(C)C)c1C (stereo not drawn)		inconclusive: 13 µM [cytotoxic, single point]
CCN(CC)c1ccc(/C=N/n2c(=S)[nH]nc(C)c2=O)cc1		inconclusive: 29.1 µM [rising, partial curve, poor fit]
c1csc(CNc2nc(NCC3CCCCC3)c3sccc3n2)c1		inconclusive: 23.1 µM [cytotoxic, partial curve]
COc1cc(-c2noc(-c3ccccc3C(=O)NCc3ccco3)n2)cc(OC)c1OC		inconclusive: 0.13 µM [cytotoxic, full curve]
COCCn1c(-c2cccc([N+](=O)[O-])c2)nc2c1c(=O)[nH]c(=O)n2Cc1ccccc1		inconclusive: 16.4 µM [cytotoxic, single point]
CCN(C(=O)c1c(C)noc1C)c1c(N)n(Cc2ccccc2)c(=O)[nH]c1=O		inconclusive: 20.6 µM [rising, single point]
O=C(CSc1ccc2nnc(-c3ccc(Cl)cc3)n2n1)N1CCCc2ccccc21		inconclusive: 8.2 µM [cytotoxic, partial curve, poor fit]
CCOC(=O)c1c(C)[nH]c(C(=O)OCC(=O)NC(C)(C)C)c1C		inconclusive: 4.61 µM [cytotoxic, full curve]
COc1cc(C(=O)NCc2cccnc2)ccc1OCC(=O)Nc1cccc(C(F)(F)F)c1		inconclusive: 9.2 µM [cytotoxic, partial curve, poor fit]
Cc1nc(-c2ccc(S(=O)(=O)NCc3ccc(OC(C)C)cc3)cc2)co1	inactive: -0.0505%	
COc1cc(NC(=O)Cn2cnc3sc(C)c(S(=O)(=O)N4CCC(C)CC4)c3c2=O)cc(OC)c1OC	inactive: 13.5%	
CC1(C)CC(=O)c2cnc(N3CCN(c4ccccc4)CC3)nc2C1		inconclusive: 29.1 µM [cytotoxic, single point]
COc1cc(-c2nc3oc4ccccc4c(=O)c3c(=O)n2Cc2ccco2)cc(OC)c1OC		inconclusive: 8.2 µM [cytotoxic, partial curve]
O=C(CCc1ccccc1)NC(=S)Nc1cc(C(F)(F)F)ccc1N1CCOCC1		inconclusive: 18.4 µM [cytotoxic, partial curve, poor fit]
Cc1onc(-c2ccccc2)c1C(=O)NCCc1c[nH]c2ccccc12		inconclusive: 8.2 µM [cytotoxic, partial curve]
COC(=O)c1cc(NS(=O)(=O)c2ccc(N3CCOCC3)c(NC(C)=O)c2)cc(C(=O)OC)c1	inactive: 19.3%	
CCOc1ccc(C2/C(=C(\O)c3ccc4c(c3)OCCO4)C(=O)C(=O)N2Cc2cccnc2)cc1OCC (stereo not drawn)		inconclusive: 11.6 µM [rising, partial curve, poor fit]
CCn1c(=O)c2sccc2n2c(CCC(=O)Nc3ccc(OC)cc3OC)nnc12	inactive: 0%	
Cc1ccc(C)c(S(=O)(=O)N2CCN(C(=O)C3CCN(c4ncnc5sc(C)c(C)c45)CC3)CC2)c1		inconclusive: 10.3 µM [cytotoxic, partial curve, poor fit]
CCOc1cc2[nH]c(=S)n(C(C)C)c(=O)c2cc1OCC		inconclusive: 29.1 µM [cytotoxic, single point]
CCOc1ccc2ccccc2c1/C=N\NC(=O)OC	inactive: 0.236%	

Structures listed so far with a furan ring, fused or not, in the order listed:
Structure (SMILES)	activity change, negative = cytotoxicity	Potency
COc1cc(-c2noc(-c3ccccc3C(=O)NCc3ccco3)n2)cc(OC)c1OC		inconclusive: 0.13 µM [cytotoxic, full curve]
COc1cc(-c2nc3oc4ccccc4c(=O)c3c(=O)n2Cc2ccco2)cc(OC)c1OC		inconclusive: 8.2 µM [cytotoxic, partial curve]

Next part

Structure (SMILES)	activity change, negative = cytotoxicity	Potency
O=c1c2ccccc2n(Cc2c(F)cccc2Cl)c(=O)n1Cc1ccccc1	inactive: 0%	
Cc1ccc(C(=O)NNS(=O)(=O)c2ccc(F)cc2)cc1	inactive: 10.5%	
CN(CC(=O)Nc1ccc(N2CCOCC2)cc1)CC(=O)Nc1ccccc1C#N		inconclusive: 16.4 µM [cytotoxic, single point]
CCCCN(Cc1cc2cc(OC)ccc2[nH]c1=O)C(=O)c1ccco1		inconclusive: 13 µM [cytotoxic, partial curve]
CC(C)(C)S(=O)(=O)c1cnc(-c2ccc(Cl)cc2)nc1N	inactive: -9.35%	
CC(C)[C@H](NC(=O)c1ccccc1F)C(=O)OCC(=O)NC(=O)NC1CCCCC1	inactive: -5.18%	
CCN(CC)S(=O)(=O)c1ccc(N2CCOCC2)c(NC(=O)Cc2ccc(Cl)cc2)c1		inconclusive: 23.1 µM [cytotoxic, single point]
O=C(NCc1cccs1)C1CCN(c2ccc(S(=O)(=O)N3CCOCC3)cc2Cl)CC1		active: 3.66 µM
Cc1ccc(S(=O)(=O)N2CCN(Cc3ccc4c(c3)OCO4)CC2)cc1	inactive: -4.81%	
O=C(NCc1ccco1)c1nn2c(C(F)(F)F)cc(-c3cccs3)nc2c1Br		inconclusive: 18.4 µM [cytotoxic, partial curve, poor fit]
CCCCOc1ccc(CNC(=O)C2CCCN(c3nnc(-n4c(C)ccc4C)s3)C2)cc1 (stereo not drawn)		inconclusive: 0.0116 µM [rising, full curve]
CC(C)(C)OC(=O)N1CCc2onc(-c3ccc(Cl)cc3)c2C1=O	inactive: 0.335%	
C=CCn1c(SCC(=O)Nc2ccc3c(c2)OCO3)nnc1-c1ccccc1OC	inactive: -5.53%	
COc1cc(C(=O)N2CCC(c3nc4ccccc4s3)CC2)cc(OC)c1OC		inconclusive: 8.2 µM [cytotoxic, partial curve]
COc1cc(CNCc2ccccc2C(F)(F)F)cc(OC)c1		inconclusive: 25.9 µM [cytotoxic, partial curve, poor fit]
O=[N+]([O-])c1cccc(S(=O)(=O)Nc2ccc(S(=O)(=O)Nc3nccs3)cc2)c1		inconclusive: 29.1 µM [rising, single point]
N#Cc1c(N)c(C(=O)c2ccc(Cl)cc2)n2c1CCC2	inactive: -25.5%	
CCc1ncc(CN2CCC(C(=O)Nc3ccc(-n4nc(C)cc4C)cc3)CC2)cn1		inconclusive: 23.1 µM [cytotoxic, single point]
CNS(=O)(=O)c1cnccc1N1CCN(c2cccc(C(F)(F)F)c2)CC1		inconclusive: 14.6 µM [cytotoxic, partial curve]
CCc1nc(N2CCC(C)CC2)c2oc3ccccc3c2n1		active: 9.2 µM
COC(=O)c1ccc(COc2ccccc2/C=C(\C#N)C(=O)Nc2c(C)cc(C)cc2C)cc1		active: 16.4 µM
